Consider one molecule from PMC5572705.

Amino acid sequences for entries named in this document (tags omitted).
UniProt Q13547: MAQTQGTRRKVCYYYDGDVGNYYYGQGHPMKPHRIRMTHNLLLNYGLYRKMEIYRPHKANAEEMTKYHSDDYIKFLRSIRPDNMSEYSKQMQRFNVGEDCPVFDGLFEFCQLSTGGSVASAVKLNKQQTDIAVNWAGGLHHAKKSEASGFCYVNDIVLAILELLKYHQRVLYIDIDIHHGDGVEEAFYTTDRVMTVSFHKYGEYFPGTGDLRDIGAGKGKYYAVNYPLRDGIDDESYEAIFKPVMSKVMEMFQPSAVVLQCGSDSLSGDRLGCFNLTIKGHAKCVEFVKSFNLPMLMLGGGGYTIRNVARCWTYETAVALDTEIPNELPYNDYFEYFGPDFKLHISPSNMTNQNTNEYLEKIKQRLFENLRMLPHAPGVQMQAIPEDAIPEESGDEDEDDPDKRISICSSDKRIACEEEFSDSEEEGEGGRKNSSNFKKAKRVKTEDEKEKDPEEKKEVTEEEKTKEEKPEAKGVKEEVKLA

Results are given in words; binding and its absence hold for the method and conditions named. Binding seen in cells or lysates may run through a third protein. Some entries that bind do so weakly or less than the wild type.

The experiment has as its target HDAC1 (histone deacetylase-1) (human (endogenous in THP-1)) (UniProt Q13547). Kind of experiment: co-IP; 1 mg total cell lysate in IP buffer (20 mM HEPES pH 7.9, 75 mM KCl, 2.5 mM MgCl2, 0.1% NP-40) with 5 ug anti-HDAC1 rabbit antibody, 4 C, 3 h; Dynabeads Protein G; five washes; western blot of co-precipitated proteins; cells differentiated (Fig. 3i) or arrested in G1 with mimosine (Fig. 4j). Background: Immunoblotting shows a protein as a band on a membrane.

B1: RB1/p105 (protein, UniProt P06400 1-928)
chain: MPPKTPRKTAATAAAAAAEPPAPPPPPPPEEDPEQDSGPEDLPLVRLEFEETEEPDFTALCQKLKIPDHVRERAWLTWEKVSSVDGVLGGYIQKKKELWGICIFIAAVDLDEMSFTFTELQKNIEISVHKFFNLLKEIDTSTKVDNAMSRLLKKYDVLFALFSKLERTCELIYLTQPSSSISTEINSALVLKVSWITFLLAKGEVLQMEDDLVISFQLMLCVLDYFIKLSPPMLLKEPYKTAVIPINGSPRTPRRGQNRSARIAKQLENDTRIIEVLCKEHECNIDEVKNVYFKNFIPFMNSLGLVTSNGLPEVENLSKRYEEIYLKNKDLDARLFLDHDKTLQTDSIDSFETQRTPRKSNLDEEVNVIPPHTPVRTVMNTIQQLMMILNSASDQPSENLISYFNNCTVNPKESILKRVKDIGYIFKEKFAKAVGQGCVEIGSQRYKLGVRLYYRVMESMLKSEEERLSIQNFSKLLNDNIFHMSLLACALEVVMATYSRSTSQNLDSGTDLSFPWILNVLNLKAFDFYKVIESFIKAEGNLTREMIKHLERCEHRIMESLAWLSDSPLFDLIKQSKDREGPTDHLESACPLNLPLQNNHTAADMYLSPVRSPKKKGSTTRVNSTANAETQATSAFQTQKPLKSTSLSLFYKKVYRLAYLRLNTLCERLLSEHPELEHIIWTLFQHTLQNEYELMRDRHLDQIMMCSMYGICKVKNIDLKFKIIVTAYKDLPHAVQETFKRVLIKEEEYDSIIVFYNSVFMQRLKTNILQYASTRPPTLSPIPHIPRSPYKFPSSPLRIPGGNIYISPLKSPYKISEGLPTPTKMTPRSRILVSIGESFGTSEKFQKINQMVCNSDRVLKRSAEGSNPPKPLKKLRFDIEGSDEADGSKHLPGESKFQQKLAEMTSTRTRMQKQKMNDSMDTSNKEEK
Take B1: the binding result is on record as “binds”.
